Experimental data published in patent US20100061989A1.
These are yes or no findings as the source states them, for the method shown. In cells and extracts the contact can be indirect. A yes stands for co-enrichment or nearness to the bait. Other partners may have been found. Sequences can lack the tags named with a protein.

Target: protein methyltransferase PRMT-5 (human, untagged) (human)
Assay: FLAG immunoprecipitation from K562 cells expressing NF-E4-FLAG, mass spectrometry of gel bands

B1: NF-E4-FLAG (protein, UniProt Q86UQ8 1-179, looked up, not shown: small tags and cut ends)
chain: MPRVVCWHTLKSLNGYKNLSSGAETREGLRSSSPVDLPLRPRKQATAAGQRKLLSLQLLLCACTSVTDLTYWGPAGHGATAPHRSLLAIHLHLVPASSAAMKATGPHNAQTQVNPQGHAPSAEDPTGTWTVSGPCKDHPHPFLSQSNPPTRISSALPLKTDSALEQTPQQLPSLHLSQG
  binding: binds
